Test results taken from paper PMC10257648.
No constants are given. Whether binding was seen depends on the method and setting. Binding seen in cells or lysates may run through a third protein.

Protein sequences, listed by entry. Tags and fused reporters are not part of them.
UniProt P29375: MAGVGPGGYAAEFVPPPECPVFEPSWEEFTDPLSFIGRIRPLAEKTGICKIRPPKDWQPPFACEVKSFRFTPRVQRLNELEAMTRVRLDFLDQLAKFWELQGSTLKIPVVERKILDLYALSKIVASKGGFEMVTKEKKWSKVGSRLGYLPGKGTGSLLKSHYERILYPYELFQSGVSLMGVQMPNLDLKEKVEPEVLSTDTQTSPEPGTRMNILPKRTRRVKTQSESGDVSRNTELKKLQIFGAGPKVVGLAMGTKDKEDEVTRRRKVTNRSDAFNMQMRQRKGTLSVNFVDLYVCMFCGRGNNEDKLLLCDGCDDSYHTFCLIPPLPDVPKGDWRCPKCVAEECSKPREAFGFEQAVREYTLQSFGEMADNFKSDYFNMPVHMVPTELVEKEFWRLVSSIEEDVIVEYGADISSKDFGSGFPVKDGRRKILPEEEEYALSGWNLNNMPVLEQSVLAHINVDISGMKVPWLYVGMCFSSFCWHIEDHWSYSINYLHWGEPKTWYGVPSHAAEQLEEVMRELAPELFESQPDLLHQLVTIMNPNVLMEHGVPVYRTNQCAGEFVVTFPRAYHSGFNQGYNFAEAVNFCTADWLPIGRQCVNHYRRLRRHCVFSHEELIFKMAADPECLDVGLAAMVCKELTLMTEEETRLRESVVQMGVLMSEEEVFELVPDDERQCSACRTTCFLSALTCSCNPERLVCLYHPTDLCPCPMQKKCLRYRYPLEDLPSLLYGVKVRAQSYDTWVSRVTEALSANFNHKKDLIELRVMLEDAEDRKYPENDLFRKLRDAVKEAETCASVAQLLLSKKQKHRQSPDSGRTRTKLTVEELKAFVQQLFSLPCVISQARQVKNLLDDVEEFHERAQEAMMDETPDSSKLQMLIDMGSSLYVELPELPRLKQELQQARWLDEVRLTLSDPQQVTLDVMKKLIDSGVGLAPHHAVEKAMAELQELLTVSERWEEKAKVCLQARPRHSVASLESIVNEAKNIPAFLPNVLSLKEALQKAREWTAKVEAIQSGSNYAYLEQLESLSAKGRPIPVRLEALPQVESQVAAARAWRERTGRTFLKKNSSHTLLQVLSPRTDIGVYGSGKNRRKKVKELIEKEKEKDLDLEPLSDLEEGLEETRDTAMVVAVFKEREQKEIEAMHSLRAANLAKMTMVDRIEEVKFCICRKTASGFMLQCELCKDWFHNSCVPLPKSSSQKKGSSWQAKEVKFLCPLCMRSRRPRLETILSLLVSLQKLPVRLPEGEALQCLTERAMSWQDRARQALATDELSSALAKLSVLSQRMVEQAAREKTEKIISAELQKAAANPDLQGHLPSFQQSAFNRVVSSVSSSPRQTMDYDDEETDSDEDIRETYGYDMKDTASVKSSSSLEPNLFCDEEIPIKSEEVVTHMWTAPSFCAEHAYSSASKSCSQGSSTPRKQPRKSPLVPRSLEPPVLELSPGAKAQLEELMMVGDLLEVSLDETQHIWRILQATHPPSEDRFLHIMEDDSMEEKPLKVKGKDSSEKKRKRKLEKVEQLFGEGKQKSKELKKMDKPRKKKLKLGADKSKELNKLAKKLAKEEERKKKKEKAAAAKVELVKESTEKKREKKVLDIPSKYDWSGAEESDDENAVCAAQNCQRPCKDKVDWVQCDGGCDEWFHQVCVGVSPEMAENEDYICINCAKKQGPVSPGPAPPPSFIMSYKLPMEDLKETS

Target: endogenous KDM5A protein (human (endogenous in iPSC PBMC2-iPS4F8 clones)) (UniProt P29375)
Experiment: co-IP; pulldown against KDM5A (anti-KDM5A antibody) from mitotic extracts of nocodazole-arrested cells (iPSC-control#1, iPSC-NK5A#29, CHRF-288-11), Western blot with anti-KDM5A and anti-RAE1 antibodies

- binding: no binding
B1: RNA export 1 (RAE1) protein (protein, UniProt P78406 1-368)
chain: MSLFGTTSGFGTSGTSMFGSATTDNHNPMKDIEVTSSPDDSIGCLSFSPPTLPGNFLIAGSWANDVRCWEVQDSGQTIPKAQQMHTGPVLDVCWSDDGSKVFTASCDKTAKMWDLSSNQAIQIAQHDAPVKTIHWIKAPNYSCVMTGSWDKTLKFWDTRSSNPMMVLQLPERCYCADVIYPMAVVATAERGLIVYQLENQPSEFRRIESPLKHQHRCVAIFKDKQNKPTGFALGSIEGRVAIHYINPPNPAKDNFTFKCHRSNGTNTSAPQDIYAVNGIAFHPVHGTLATVGSDGRFSFWDKDARTKLKTSEQLDQPISACCFNHNGNIFAYASSYDWSKGHEFYNPQKKNYIFLRNAAEELKPRNKK
